# Legend:
# [1] = biological target: T1, Native human AAG (alpha-1-acid glycoprotein, orosomucoid); assay: microscale thermophoresis, RED-NHS labelled protein, […] fit; format: binding; conditions: 25 mM sodium phosphate pH 7.4, 0.05% Tween 20, 5% DMSO, room temperature, 20 nM AAG
# T1 construct: gene ORM1; native human plasma protein, 183 residues, two cystine bridges, five N-glycans, fully sialylated (IS 270)
# Desialylated human AAG = biological target: T2, Desialylated human AAG; assay: as above; format: binding; conditions: 25 mM sodium phosphate pH 7.4, 0.05% Tween 20, 5% DMSO, room temperature, 20 nM AAG
# T2 construct: gene ORM1
structure (smiles),measurement,setting,value
CC(C)NCC(O)COc1cccc2ccccc12 (racemic) [propranolol],Kd,[1],811 µM
same,Kd,Desialylated human AAG,1200 µM
